US6075006A (Centro Interuniversitario di Ricera Sui Peptidi …, priority 1996, dated 2000)
Strings that start with PEPTIDE1 are HELM notation: dots part the residues, brackets hold end groups and non-standard residues.

Assays:
[1] = solid-phase peptide synthesis; conditions: cyclisation step, analytical HPLC
[2] = general procedure: Boc solid-phase peptide synthesis; PAM resin functionalized with Boc-Leu; Macrosorb SPR resin with p-hydroxymethylbenzoic acid linker (Comparative Example); PyBop/DIEA (cyclisation); HOBT/DCC (Comparative Example 2); conditions: analytical HPLC

With “PEPTIDE1{[AsnG].[Dx].W.F.[Dapx].L}|CHEM1{[Gal]}$PEPTIDE1,PEPTIDE1,6:R2-1:R1|PEPTIDE1,PEPTIDE1,2:R3-5:R3|PEPTIDE1,CHEM1,1:R3-1:R1$$$V2.0” the “crude HPLC purity” value [1] was “purity>80%” and the “final HPLC purity” value ([2]; cyclisation step) was “purity>94%”.
In the case of “PEPTIDE1{[CysG].[Dx].W.F.[Dapx].L}|CHEM1{[Gal]}$PEPTIDE1,PEPTIDE1,6:R2-1:R1|PEPTIDE1,PEPTIDE1,2:R3-5:R3|PEPTIDE1,CHEM1,1:R3-1:R1$$$V2.0”, the “crude HPLC purity” value ([2]; late stage modification step) is reported as “area>80%” and the “final HPLC purity” value ([2]; late stage modification step) is reported as “purity>94%”.
With “PEPTIDE1{[SerG].[Dx].W.F.[Dapx].L}|CHEM1{[Gal]}$PEPTIDE1,PEPTIDE1,6:R2-1:R1|PEPTIDE1,PEPTIDE1,2:R3-5:R3|PEPTIDE1,CHEM1,1:R3-1:R1$$$V2.0” the “crude HPLC purity” value ([2]; whole synthesis) was “purity>85%” and the “final HPLC purity” value ([2]; whole synthesis) was “purity>94%”.
